Reference: PMC12781873
No constants are given. Whether binding was seen depends on the method and setting. In cells and extracts the contact can be indirect. Some binding calls cover weakened binding; strength is not graded here. For some of these results: Where a sequence is shown, tags or fusion partners need not be part of it. Blank lines part the entries; values can stand above or below the binder they belong to.

Amino acid sequences for entries named in this document (tags omitted).
UniProt P22147: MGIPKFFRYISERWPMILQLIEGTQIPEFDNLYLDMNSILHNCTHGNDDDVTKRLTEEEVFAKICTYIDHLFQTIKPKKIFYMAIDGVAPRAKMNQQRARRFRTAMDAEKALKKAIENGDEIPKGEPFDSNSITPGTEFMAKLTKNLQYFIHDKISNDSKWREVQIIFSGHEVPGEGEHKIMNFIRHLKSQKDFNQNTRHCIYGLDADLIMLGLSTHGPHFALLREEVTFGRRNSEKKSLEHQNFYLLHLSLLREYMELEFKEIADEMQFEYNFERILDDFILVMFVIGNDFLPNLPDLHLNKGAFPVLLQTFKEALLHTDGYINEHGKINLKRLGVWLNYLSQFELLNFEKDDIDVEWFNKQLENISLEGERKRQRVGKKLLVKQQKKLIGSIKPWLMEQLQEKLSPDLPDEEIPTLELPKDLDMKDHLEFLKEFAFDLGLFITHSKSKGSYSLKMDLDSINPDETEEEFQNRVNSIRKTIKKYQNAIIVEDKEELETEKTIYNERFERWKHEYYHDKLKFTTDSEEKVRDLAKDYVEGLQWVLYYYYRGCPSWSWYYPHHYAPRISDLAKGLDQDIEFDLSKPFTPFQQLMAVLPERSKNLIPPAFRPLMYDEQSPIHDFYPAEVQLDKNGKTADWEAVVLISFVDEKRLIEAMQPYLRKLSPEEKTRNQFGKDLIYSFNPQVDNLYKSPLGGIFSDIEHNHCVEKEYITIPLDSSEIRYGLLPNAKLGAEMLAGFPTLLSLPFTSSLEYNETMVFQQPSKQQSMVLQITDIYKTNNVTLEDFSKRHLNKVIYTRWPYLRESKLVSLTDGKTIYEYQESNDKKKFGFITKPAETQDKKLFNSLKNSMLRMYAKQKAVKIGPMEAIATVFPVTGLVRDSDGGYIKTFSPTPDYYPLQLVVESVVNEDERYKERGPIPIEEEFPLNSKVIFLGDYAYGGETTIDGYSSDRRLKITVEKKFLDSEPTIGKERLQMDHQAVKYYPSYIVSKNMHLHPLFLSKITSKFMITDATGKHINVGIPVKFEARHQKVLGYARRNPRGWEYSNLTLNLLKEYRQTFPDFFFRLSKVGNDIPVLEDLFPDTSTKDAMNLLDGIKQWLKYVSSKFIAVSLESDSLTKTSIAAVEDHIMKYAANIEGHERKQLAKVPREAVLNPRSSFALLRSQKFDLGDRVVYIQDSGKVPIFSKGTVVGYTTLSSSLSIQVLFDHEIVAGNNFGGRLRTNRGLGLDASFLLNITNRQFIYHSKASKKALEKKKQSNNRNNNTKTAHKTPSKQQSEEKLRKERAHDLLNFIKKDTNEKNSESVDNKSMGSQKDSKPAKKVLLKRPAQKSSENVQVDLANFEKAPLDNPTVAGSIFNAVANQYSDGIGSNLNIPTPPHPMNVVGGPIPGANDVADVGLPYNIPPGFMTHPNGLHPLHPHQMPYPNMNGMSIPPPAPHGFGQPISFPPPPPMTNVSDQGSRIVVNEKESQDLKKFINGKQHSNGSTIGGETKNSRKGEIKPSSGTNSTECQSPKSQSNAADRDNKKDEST

Key:
Xrn1–GFP (S. cerevisiae) = Xrn1–GFP (S. cerevisiae) (UniProt P22147); assay: co-IP; yeast lysate in PBSKMT buffer (PBS pH 7.4, 3 mM KCl, 2.5 mM MgCl2, 0.5 % Triton X-100); lysate split in two, one portion with RNase A 200 μg/ml; GFP- or MYC-tagged protein precipitated on GFP- or MYC-conjugated beads, 5 h at 4°C; western blot; Mex67 with Lhp1 also in the lsm8-1 mutant
Dcp2–GFP (S. cerevisiae) = target: T1, Dcp2–GFP (S. cerevisiae) (UniProt P53550); assay: as above
T1 sequence: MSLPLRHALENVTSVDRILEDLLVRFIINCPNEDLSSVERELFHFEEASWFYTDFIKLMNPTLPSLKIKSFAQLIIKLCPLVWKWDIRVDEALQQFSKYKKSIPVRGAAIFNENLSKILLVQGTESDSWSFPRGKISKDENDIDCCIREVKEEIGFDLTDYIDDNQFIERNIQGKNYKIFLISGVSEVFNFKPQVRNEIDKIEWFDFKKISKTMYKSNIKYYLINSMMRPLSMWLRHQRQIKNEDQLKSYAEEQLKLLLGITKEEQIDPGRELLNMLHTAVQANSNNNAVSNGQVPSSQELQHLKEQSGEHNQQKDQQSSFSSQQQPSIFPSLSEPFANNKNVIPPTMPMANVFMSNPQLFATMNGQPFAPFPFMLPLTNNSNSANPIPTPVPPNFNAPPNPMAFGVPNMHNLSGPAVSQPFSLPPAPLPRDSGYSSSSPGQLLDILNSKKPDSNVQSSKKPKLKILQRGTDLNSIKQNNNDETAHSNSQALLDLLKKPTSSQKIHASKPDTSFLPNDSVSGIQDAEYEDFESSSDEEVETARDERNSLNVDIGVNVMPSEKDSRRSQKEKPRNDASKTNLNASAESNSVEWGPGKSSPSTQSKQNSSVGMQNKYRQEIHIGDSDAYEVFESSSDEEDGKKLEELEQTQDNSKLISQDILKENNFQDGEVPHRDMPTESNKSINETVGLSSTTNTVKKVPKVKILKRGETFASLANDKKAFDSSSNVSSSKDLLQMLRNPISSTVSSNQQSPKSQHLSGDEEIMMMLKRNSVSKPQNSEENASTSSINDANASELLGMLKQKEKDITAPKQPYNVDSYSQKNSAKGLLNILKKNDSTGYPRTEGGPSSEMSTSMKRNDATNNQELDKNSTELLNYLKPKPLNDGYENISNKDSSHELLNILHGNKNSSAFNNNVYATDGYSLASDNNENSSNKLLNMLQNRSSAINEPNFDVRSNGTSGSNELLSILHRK

Lhp1–GFP (S. cerevisiae) = target: T2, Lhp1–GFP (S. cerevisiae) (UniProt P33399); assay: as above
T2 sequence: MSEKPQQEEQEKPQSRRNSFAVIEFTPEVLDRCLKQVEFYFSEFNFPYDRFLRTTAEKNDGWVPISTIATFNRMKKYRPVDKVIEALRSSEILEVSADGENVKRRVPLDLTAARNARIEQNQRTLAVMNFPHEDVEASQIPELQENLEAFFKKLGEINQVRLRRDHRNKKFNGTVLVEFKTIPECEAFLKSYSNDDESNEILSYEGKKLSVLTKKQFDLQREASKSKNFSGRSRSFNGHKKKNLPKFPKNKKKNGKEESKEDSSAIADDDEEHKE

[1] = target: T3, Lsm8 (as used in Fig. 3I) (S. cerevisiae) (UniProt P47093); assay: as above
T3 sequence: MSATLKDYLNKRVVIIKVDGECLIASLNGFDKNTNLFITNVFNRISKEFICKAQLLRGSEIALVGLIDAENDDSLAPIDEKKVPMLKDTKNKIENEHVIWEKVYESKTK

Lhp1-myc (S. cerevisiae) = target: T4, Lhp1-myc (S. cerevisiae) (UniProt P33399); assay: as above
T4 sequence: T2 sequence

[2] = target: T5, Rrp6 (GFP-tagged) (S. cerevisiae) (UniProt Q12149); assay: co-IP; GFP-tagged proteins pulled down from yeast lysate (blot that goes with the RIP experiment); co-precipitated Lhp1 detected through its myc-tag
T5 sequence: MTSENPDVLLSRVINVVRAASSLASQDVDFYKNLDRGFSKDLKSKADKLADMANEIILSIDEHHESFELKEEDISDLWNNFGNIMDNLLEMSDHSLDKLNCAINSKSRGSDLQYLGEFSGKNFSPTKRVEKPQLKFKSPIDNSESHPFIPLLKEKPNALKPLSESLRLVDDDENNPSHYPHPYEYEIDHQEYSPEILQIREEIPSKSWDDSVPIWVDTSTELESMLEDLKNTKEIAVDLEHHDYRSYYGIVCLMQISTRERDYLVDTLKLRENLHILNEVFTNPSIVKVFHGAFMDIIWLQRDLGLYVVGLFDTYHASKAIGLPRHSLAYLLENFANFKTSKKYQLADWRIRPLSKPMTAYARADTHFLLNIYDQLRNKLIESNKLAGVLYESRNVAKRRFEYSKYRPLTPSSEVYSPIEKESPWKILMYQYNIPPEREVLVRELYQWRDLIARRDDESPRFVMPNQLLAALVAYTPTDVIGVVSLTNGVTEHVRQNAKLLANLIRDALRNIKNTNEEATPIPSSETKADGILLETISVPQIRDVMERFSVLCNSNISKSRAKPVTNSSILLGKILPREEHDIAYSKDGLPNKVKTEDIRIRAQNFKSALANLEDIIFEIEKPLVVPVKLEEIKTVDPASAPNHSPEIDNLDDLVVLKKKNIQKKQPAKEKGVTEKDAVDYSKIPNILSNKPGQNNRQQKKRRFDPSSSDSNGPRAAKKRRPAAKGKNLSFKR

Usb1–GFP (S. cerevisiae) = target: T6, Usb1–GFP (S. cerevisiae) (UniProt Q12208); assay: co-IP; yeast lysate in PBSKMT buffer (PBS pH 7.4, 3 mM KCl, 2.5 mM MgCl2, 0.5 % Triton X-100); lysate split in two, one portion with RNase A 200 μg/ml; GFP- or MYC-tagged protein precipitated on GFP- or MYC-conjugated beads, 5 h at 4°C; western blot; Mex67 with Lhp1 also in the lsm8-1 mutant
T6 sequence: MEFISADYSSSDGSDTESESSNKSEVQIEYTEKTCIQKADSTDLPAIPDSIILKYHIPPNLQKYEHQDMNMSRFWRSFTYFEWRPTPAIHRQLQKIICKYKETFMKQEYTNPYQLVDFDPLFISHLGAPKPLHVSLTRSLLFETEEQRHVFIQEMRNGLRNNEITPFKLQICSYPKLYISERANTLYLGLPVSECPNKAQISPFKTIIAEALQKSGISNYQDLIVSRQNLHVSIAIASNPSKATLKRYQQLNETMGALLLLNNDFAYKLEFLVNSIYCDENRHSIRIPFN

B1: Gbp2 (protein, UniProt P25555 1-427)
chain: MERELGMYGNDRSRSRSPVRRRLSDDRDRYDDYNDSSSNNGNGSRRQRRDRGSRFNDRYDQSYGGSRYHDDRNWPPRRGGRGRGGSRSFRGGRGGGRGRTLGPIVERDLERQFDATKRNFENSIFVRNLTFDCTPEDLKELFGTVGEVVEADIITSKGHHRGMGTVEFTKNESVQDAISKFDGALFMDRKLMVRQDNPPPEAAKEFSKKATREEIDNGFEVFIINLPYSMNWQSLKDMFKECGHVLRADVELDFNGFSRGFGSVIYPTEDEMIRAIDTFNGMEVEGRVLEVREGRFNKRKNNDRYNQRREDLEDTRGTEPGLAQDAAVHIDETAAKFTEGVNPGGDRNCFIYCSNLPFSTARSDLFDLFGPIGKINNAELKPQENGQPTGVAVVEYENLVDADFCIQKLNNYNYGGCSLQISYARRD
binding (Xrn1–GFP (S. cerevisiae)): binds | binding (Dcp2–GFP (S. cerevisiae)): binds | binding (Lhp1–GFP (S. cerevisiae)): binds weakly

B4: Hrb1 (protein, UniProt P38922 1-454)
chain: MSDQERGSENNNRSRSRSRSPVRRRMSDDHGYERDNHLSRRSGNYNGRRKFADTYRGSRDRGEYRGGRERSDYRERERFNNRDNPRSRDRYDDRRRGRDVTGRYGNRRDDYPRSFRSRHNTRDDSRRGGFGSSGARGDYGPLLARELDSTYEEKVNRNYSNSIFVGNLTYDSTPEDLTEFFSQIGKVVRADIITSRGHHRGMGTVEFTNSDDVDRAIRQYDGAFFMDRKIFVRQDNPPPSNNIKERKALDRGELRHNRKTHEVIVKNLPASVNWQALKDIFKECGNVAHADVELDGDGVSTGSGTVSFYDIKDLHRAIEKYNGYSIEGNVLDVKSKESVHNHSDGDDVDIPMDDSPVNEEARKFTENVVGGGERNRLIYCSNLPFSTAKSDLYDLFETIGKVNNAELRYDSKGAPTGIAVVEYDNVDDADVCIERLNNYNYGGCDLDISYAKRL
binding (Xrn1–GFP (S. cerevisiae)): binds | binding (Dcp2–GFP (S. cerevisiae)): binds | binding (Lhp1–GFP (S. cerevisiae)): binds weakly

Continued, values first:

binding [1]: binds
B2: Usb1 (as used in Fig. 3I) (enzyme, UniProt Q12208 1-290)
chain: T6 sequence

binding (Lhp1-myc (S. cerevisiae)): binds
B3: Rnt1 (enzyme, UniProt Q02555 1-471)
chain: MGSKVAGKKKTQNDNKLDNENGSQQRENINTKTLLKGNLKISNYKYLEVIQLEHAVTKLVESYNKIIELSPNLVAYNEAVNNQDRVPVQILPSLSRYQLKLAAELKTLHDLKKDAILTEITDYENEFDTEQKQPILQEISKADMEKLEKLEQVKREKREKIDVNVYENLNEKEDEEEDEGEDSYDPTKAGDIVKATKWPPKLPEIQDLAIRARVFIHKSTIKDKVYLSGSEMINAHNERLEFLGDSILNSVMTLIIYNKFPDYSEGQLSTLRMNLVSNEQIKQWSIMYNFHEKLKTNFDLKDENSNFQNGKLKLYADVFEAYIGGLMEDDPRNNLPKIRKWLRKLAKPVIEEATRNQVALEKTDKLDMNAKRQLYSLIGYASLRLHYVTVKKPTAVDPNSIVECRVGDGTVLGTGVGRNIKIAGIRAAENALRDKKMLDFYAKQRAAIPRSESVLKDPSQKNKKRKFSDTS

binding [2]: binds | binding (Usb1–GFP (S. cerevisiae)): binds
B5: Lhp1-myc (protein, UniProt P33399 1-275)
chain: T2 sequence
